Laboratory results taken from ChEMBL document CHEMBL2163188, “Discovery of piragliatin--first glucokinase activator studied in type 2 diabetic patients” (J Med Chem, 2012).

Legend:
[1] = Distribution coefficient, log D of the compound at pH 7.4; details: octanol/water
[2] = Apparent permeability across human Caco2 cells; details: Caco-2

Compound: CS(=O)(=O)c1ccc([C@@H](C[C@H]2CCC(=O)C2)C(=O)Nc2cnccn2)cc1Cl [PIRAGLIATIN]
- logD [1]: 1.45
- Papp [2]: 1.6 ×10⁻⁶ cm/s
